Source: the supplement of paper PMC12067093, “Discovery and optimisation of a covalent ligand for TRIM25 and its application to targeted protein ubiquitination” (Chemical Science, 2025)
The list shows a part of the results.

By UniProt entry, the sequences of proteins in these tests, tags left out. Where a name states a change or a piece, a line headed by the entry shows the natural chain unless it says otherwise.
UniProt Q13889: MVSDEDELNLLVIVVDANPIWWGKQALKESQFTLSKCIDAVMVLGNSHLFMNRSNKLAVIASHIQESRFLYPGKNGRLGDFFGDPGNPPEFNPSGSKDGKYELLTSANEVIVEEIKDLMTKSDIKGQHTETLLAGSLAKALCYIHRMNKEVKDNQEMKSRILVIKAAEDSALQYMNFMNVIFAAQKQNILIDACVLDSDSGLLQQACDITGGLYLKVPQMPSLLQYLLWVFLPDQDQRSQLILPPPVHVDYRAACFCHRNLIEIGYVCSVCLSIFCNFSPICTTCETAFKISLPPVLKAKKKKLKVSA
UniProt Q12789: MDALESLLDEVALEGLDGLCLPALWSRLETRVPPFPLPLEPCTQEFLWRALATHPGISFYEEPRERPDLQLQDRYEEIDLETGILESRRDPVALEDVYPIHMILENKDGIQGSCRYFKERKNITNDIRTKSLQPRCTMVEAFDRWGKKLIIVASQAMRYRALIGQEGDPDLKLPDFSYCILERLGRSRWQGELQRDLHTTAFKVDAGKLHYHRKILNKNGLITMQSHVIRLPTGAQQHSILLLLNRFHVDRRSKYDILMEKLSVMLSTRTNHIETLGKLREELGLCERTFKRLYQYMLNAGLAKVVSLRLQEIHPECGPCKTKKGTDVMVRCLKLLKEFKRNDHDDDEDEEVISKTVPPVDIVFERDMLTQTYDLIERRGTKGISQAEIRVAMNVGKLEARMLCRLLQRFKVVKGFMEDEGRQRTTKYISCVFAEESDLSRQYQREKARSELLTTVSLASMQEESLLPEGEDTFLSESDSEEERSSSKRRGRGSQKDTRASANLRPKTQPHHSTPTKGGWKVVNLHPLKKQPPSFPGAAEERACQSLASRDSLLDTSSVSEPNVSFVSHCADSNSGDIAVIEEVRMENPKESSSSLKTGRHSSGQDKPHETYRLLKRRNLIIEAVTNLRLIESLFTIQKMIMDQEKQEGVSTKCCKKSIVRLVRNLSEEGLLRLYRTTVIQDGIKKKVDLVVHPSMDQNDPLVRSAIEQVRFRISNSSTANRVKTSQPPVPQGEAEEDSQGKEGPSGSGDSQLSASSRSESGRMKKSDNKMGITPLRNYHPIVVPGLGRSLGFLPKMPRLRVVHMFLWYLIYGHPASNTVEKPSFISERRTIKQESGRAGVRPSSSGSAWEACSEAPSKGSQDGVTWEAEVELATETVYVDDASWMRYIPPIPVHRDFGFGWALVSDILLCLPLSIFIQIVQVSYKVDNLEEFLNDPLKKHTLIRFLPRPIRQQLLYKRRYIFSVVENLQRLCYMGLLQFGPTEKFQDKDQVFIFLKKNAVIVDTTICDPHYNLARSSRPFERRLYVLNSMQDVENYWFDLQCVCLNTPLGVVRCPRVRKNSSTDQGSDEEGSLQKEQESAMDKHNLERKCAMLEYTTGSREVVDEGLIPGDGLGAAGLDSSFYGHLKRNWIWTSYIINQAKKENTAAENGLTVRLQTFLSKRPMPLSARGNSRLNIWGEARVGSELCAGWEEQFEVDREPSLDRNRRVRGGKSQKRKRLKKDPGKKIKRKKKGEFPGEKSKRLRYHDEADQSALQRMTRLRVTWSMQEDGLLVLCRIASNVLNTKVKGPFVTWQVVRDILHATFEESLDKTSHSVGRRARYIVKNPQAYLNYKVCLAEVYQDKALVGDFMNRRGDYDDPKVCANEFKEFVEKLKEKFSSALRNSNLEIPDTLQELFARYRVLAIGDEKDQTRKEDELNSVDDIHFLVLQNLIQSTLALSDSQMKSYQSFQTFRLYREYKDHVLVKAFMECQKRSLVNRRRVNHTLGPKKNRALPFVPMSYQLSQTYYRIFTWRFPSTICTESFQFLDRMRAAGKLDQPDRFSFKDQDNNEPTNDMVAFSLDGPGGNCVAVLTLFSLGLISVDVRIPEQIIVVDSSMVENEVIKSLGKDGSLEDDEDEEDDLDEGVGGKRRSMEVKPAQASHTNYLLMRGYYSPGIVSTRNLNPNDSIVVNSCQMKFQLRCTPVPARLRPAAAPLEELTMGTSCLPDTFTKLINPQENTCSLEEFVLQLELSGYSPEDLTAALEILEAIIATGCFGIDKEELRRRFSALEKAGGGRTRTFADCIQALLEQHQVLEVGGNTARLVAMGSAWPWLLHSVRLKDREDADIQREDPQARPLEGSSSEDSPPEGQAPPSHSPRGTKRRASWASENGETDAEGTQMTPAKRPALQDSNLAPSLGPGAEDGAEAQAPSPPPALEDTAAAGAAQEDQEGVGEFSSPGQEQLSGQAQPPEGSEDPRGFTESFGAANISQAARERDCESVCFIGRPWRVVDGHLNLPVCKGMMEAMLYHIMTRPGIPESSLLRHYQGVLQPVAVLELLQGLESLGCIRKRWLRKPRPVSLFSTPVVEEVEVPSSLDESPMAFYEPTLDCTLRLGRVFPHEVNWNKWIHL
UniProt P49841: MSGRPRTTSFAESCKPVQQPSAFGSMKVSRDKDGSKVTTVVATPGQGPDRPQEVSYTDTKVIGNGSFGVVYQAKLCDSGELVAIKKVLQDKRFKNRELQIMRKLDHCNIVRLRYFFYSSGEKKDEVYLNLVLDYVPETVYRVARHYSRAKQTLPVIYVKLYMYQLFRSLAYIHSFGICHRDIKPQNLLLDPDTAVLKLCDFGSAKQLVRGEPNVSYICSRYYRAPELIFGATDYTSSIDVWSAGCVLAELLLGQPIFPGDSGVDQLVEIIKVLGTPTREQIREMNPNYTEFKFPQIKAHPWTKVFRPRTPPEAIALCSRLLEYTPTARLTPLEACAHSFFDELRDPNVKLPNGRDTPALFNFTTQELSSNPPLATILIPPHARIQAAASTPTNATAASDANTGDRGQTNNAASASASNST
UniProt Q13322: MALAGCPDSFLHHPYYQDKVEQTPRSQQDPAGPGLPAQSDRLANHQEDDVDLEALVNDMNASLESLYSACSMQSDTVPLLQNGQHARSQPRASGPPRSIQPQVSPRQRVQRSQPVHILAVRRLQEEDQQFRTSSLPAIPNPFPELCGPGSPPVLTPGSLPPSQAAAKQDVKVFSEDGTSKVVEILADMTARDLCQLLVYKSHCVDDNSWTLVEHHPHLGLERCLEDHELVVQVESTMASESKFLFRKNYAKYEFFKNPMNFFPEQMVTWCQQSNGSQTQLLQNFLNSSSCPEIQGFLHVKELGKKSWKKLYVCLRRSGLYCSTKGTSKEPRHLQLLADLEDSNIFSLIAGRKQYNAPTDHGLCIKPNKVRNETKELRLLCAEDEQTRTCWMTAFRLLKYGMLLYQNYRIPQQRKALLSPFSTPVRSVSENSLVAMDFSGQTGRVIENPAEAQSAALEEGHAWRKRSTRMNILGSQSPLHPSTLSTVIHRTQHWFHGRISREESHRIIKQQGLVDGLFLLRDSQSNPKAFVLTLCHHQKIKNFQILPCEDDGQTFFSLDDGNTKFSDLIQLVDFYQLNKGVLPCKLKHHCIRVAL
UniProt Q9H6D7: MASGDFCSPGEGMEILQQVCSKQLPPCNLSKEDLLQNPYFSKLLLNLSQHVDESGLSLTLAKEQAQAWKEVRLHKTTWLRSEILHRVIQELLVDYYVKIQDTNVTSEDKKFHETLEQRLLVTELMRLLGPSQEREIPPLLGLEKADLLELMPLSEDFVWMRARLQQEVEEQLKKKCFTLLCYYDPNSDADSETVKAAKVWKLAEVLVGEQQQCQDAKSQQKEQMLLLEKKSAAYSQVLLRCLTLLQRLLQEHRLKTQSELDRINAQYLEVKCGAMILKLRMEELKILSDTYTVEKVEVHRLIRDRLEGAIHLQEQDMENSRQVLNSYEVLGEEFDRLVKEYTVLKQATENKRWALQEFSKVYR
UniProt P15170, whole entry, looked up: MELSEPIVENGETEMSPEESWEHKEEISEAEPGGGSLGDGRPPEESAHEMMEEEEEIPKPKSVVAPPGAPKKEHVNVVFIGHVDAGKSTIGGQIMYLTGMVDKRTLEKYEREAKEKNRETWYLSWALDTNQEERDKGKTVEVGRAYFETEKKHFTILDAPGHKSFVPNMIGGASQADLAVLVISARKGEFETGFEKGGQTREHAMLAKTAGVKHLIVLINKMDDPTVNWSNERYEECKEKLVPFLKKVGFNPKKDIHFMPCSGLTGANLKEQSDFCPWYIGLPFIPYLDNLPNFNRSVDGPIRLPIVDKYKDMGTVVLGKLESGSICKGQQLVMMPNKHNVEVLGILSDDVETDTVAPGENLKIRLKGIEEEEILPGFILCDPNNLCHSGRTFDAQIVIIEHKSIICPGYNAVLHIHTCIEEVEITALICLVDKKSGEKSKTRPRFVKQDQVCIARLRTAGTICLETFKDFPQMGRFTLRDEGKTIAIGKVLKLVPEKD
UniProt O95479: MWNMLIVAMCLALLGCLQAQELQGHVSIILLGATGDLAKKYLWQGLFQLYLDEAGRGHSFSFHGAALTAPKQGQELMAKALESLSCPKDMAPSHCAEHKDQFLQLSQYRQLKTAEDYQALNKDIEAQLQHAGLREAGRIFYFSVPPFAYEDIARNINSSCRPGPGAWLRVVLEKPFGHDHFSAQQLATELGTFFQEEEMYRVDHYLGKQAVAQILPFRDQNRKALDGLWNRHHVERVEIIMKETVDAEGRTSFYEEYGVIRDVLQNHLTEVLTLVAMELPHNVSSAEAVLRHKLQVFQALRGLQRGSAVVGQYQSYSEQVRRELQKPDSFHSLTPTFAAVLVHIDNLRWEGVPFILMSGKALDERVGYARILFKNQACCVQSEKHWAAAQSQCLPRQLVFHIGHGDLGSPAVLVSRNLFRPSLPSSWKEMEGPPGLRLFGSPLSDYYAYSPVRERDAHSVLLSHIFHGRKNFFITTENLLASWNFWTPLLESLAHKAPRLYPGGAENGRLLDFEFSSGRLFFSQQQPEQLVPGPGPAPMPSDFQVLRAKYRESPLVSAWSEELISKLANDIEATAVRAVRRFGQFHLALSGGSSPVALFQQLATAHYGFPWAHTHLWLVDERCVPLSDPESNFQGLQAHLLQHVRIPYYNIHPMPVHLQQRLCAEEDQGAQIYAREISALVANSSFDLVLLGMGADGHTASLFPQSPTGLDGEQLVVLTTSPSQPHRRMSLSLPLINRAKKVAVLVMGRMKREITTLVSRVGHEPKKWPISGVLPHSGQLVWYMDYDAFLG
UniProt Q969F1: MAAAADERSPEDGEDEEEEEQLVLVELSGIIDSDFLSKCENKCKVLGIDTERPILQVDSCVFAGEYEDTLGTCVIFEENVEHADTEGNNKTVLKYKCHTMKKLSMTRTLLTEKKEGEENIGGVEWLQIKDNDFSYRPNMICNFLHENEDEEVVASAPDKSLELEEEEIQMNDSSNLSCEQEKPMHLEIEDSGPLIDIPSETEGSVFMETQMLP
UniProt Q00403, whole entry, looked up: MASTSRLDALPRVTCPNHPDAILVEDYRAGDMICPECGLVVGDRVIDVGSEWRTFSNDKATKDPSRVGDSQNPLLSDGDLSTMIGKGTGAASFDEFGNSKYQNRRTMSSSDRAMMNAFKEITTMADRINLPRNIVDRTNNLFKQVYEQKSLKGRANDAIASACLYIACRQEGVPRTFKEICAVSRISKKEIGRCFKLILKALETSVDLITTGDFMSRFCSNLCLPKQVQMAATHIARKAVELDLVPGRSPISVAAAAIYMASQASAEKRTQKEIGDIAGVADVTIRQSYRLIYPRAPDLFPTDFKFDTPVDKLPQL
UniProt O14929: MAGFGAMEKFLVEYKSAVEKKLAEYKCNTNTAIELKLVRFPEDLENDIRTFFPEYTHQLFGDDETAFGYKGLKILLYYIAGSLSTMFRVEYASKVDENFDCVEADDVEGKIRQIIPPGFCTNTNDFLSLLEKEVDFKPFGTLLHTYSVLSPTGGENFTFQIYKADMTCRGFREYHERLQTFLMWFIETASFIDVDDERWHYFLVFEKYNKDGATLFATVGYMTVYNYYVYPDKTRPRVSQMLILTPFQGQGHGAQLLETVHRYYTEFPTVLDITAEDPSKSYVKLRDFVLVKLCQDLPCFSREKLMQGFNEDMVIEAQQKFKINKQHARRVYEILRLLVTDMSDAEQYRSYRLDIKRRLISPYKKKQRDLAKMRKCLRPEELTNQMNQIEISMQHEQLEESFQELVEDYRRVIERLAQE
UniProt P09211: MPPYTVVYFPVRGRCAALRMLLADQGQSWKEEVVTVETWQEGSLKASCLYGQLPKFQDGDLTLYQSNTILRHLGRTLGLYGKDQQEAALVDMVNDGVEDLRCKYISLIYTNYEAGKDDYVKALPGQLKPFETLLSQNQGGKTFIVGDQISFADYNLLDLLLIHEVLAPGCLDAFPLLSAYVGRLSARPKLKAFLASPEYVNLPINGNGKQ
UniProt Q9HAV7: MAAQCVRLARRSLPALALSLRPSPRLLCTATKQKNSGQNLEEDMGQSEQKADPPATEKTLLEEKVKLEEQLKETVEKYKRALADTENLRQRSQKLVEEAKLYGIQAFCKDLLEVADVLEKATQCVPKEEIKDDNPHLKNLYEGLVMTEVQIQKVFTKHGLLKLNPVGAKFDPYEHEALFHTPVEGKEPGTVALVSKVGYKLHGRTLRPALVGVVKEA

Compound: CC1Cc2ccccc2N1C(=O)C1CCCN(C1)C(=O)CCl (mixture of isomers) [TRIM25 ligand 11 (diastereomer mixture)]
Assay: probe-labelled cysteine peptide fold change vs DMSO (competition) (log2 fold change); higher = less target engagement (more negative = stronger competition)
Details: THP-1, incubation time: 4 h
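Further: competitive chemoproteomic profiling in live THP-1 cells with an iodoacetamide desthiobiotin (IA-DTB) probe, comparing probe-labelled peptide intensities in compound-treated cells against DMSO-treated controls.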

Target | probe-labelled cysteine peptide fold change (10 µM) | probe-labelled cysteine peptide fold change (50 µM)
GTF2H3_Q13889_255_AACFCHR (UniProt Q13889) | 0.0404 | 0.171
GTF3C1_Q12789_1336_VCLAEVYQDK (UniProt Q12789) | 0.062 | 0.0257
GSK3B_P49841_317_TPPEAIALCSR (UniProt P49841) | -0.215 | 0.055
GSN_P06396_331_SEDCFILDHGK (UniProt P06396) | 0.0215 | 0.0214
GRB10_Q13322_363_QYNAPTDHGLCIKPNK (UniProt Q13322) | 0.0377 | -0.095
GSN_P06396_228_ATEVPVSWESFNNGDCFILDLGNNIHQWCGSNSNR (UniProt P06396) | -0.0974 | -0.0796
GRB2_P62993_198_GACHGQTGMFPR (UniProt P62993) | 0.00458 | 0.0172
GRHPR_Q9UBQ7_57_GVAGAHGLLCLLSDHVDK (UniProt Q9UBQ7) | 0.0838 | -0.0355
GTF3C1_Q12789_136_CTMVEAFDR (UniProt Q12789) | 0.127 | 0.078
HAUS4_Q9H6D7_213_LAEVLVGEQQQCQDAK (UniProt Q9H6D7) | -0.1 | -0.181
GSPT1_P15170_464_TAGTICLETFK (UniProt P15170) | -0.0521 | 0.0405
GTF2H1_P32780_478_HFWSCFPVNTPFLEEK (UniProt P32780) | 0.229 | 0.375
H6PD_O95479_393_HWAAAQSQCLPR (UniProt O95479) | -0.0176 | 0.0125
GTF3C6_Q969F1_178_SLELEEEEIQMNDSSNLSCEQEK (UniProt Q969F1) | 0.162 | -0.0756
GTF3C2_Q8WUA4_608_LYPFQCFLAHDQAVR (UniProt Q8WUA4) | 0.0279 | 0.109
GTF2B_Q00403_37_AGDMICPECGLVVGDR (UniProt Q00403) | 0.000693 | 0.073
HAT1_O14929_120_QIIPPGFCTNTNDFLSLLEK (UniProt O14929) | -0.0149 | -0.0407
GTF2B_Q00403_34_AGDMICPECGLVVGDR (UniProt Q00403) | -0.0762 | 0.0694
GSTP1_P09211_48_ASCLYGQLPK (UniProt P09211) | 0.0608 | 0.0273
GSPT1_P15170_381_GIEEEEILPGFILCDPNNLCHSGR (UniProt P15170) | 0.0954 | 0.384
GTF3C1_Q12789_1783_TFADCIQALLEQHQVLEVGGNTAR (UniProt Q12789) | -0.0529 | -0.00702
GRN_P28799_178_CITPTGTHPLAK (UniProt P28799) | 0.0869 | 0.146
GRPEL1_Q9HAV7_108_LYGIQAFCK (UniProt Q9HAV7) | -0.247 | -0.258
GSTM1_P09488_174_CLDAFPNLK (UniProt P09488) | 0.0148 | 0.0175
GSR_P00390_467_MVCANK (UniProt P00390) | 0.218 | 0.213
GRWD1_Q9BQ67_299_ACMLTTATAHDGDVNVISWSR (UniProt Q9BQ67) | -0.0845 | -0.105
